Test results reported in publication PMC7353009, “Identification of Substrates of Cytoplasmic Peptidyl-Prolyl Cis/Trans Isomerases and Their Collective Essentiality in Escherichia Coli” (International Journal of Molecular Sciences, 2020).
Results are given in words; binding and its absence hold for the method and conditions named. Binding seen in cells or lysates may run through a third protein.

Target: PpiC F81A::3xFLAG (chromosomal) (E. coli)
Assay: co-IP; cell extracts of strains with chromosomal single-copy 3xFLAG-tagged PpiC, ANTI-FLAG M2 gel, 12 h at 4 °C, native elution with 3xFLAG peptide, SDS-PAGE and silver staining

binding	Binder
no binding	GrxB (protein, UniProt P0AC59 1-215) MKLYIYDHCPYCLKARMIFGLKNIPVELHVLLNDDAETPTRMVGQKQVPILQKDDSRYMPESMDIVHYVDKLDGKPLLTGKRSPAIEEWLRKVNGYANKLLLPRFAKSAFDEFSTPAARKYFVDKKEASAGNFADLLAHSDGLIKNISDDLRALDKLIVKPNAVNGELSEDDIQLFPLLRNLTLVAGINWPSRVADYRDNMAKQTQINLLSSMAI
no binding	SeqA (protein, UniProt P0AFY8 1-181) MKTIEVDDELYSYIASHTKHIGESASDILRRMLKFSAASQPAAPVTKEVRVASPAIVEAKPVKTIKDKVRAMRELLLSDEYAEQKRAVNRFMLLLSTLYSLDAQAFAEATESLHGRTRVYFAADEQTLLKNGNQTKPKHVPGTPYWVITNTNTGRKCSMIEHIMQSMQFPAELIEKVCGTI
no binding	YrdA (protein, UniProt P0A9W9 1-184) MSDVLRPYRDLFPQIGQRVMIDDSSVVIGDVRLADDVGIWPLVVIRGDVHYVQIGARTNIQDGSMLHVTHKSSYNPDGNPLTIGEDVTVGHKVMLHGCTIGNRVLVGMGSILLDGAIVEDDVMIGAGSLVPQNKRLESGYLYLGSPVKQIRPLSDEEKAGLRYSANNYVKWKDEYLDQGNQTQP
